Source: the supplement of paper PMC10849652
The list shows a part of the results.

Protein sequences, listed by entry. Tags and fused reporters are not part of them. Lines headed by an entry give the natural chain unless they say otherwise; changes in a name come on top.
UniProt O00488: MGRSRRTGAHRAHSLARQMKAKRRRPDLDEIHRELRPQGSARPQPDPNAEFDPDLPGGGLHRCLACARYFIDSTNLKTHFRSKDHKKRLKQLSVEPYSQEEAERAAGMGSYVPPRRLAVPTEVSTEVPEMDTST
UniProt Q86UK7: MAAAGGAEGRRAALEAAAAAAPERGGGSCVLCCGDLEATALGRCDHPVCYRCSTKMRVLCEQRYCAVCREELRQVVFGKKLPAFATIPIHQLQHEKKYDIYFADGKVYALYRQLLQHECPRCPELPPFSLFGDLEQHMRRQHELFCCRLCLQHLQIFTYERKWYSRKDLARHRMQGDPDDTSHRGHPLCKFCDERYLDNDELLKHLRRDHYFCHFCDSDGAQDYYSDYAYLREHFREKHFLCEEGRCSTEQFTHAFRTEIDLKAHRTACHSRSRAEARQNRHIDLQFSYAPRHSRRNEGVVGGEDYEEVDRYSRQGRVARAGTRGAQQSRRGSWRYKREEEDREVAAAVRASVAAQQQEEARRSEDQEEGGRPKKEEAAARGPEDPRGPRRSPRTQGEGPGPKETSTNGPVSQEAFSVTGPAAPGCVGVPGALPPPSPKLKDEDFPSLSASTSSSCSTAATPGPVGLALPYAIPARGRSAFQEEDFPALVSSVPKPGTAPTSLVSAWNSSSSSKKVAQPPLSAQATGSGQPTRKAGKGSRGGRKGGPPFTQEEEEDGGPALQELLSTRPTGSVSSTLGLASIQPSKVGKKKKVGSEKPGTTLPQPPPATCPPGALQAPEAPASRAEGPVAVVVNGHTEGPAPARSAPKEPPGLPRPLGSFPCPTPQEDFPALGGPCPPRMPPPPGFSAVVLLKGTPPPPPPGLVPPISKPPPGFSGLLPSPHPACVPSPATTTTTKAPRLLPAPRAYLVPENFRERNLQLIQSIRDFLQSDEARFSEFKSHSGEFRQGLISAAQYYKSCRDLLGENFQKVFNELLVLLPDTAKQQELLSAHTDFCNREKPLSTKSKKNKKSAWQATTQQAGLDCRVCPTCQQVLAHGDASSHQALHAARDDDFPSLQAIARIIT
UniProt O15014: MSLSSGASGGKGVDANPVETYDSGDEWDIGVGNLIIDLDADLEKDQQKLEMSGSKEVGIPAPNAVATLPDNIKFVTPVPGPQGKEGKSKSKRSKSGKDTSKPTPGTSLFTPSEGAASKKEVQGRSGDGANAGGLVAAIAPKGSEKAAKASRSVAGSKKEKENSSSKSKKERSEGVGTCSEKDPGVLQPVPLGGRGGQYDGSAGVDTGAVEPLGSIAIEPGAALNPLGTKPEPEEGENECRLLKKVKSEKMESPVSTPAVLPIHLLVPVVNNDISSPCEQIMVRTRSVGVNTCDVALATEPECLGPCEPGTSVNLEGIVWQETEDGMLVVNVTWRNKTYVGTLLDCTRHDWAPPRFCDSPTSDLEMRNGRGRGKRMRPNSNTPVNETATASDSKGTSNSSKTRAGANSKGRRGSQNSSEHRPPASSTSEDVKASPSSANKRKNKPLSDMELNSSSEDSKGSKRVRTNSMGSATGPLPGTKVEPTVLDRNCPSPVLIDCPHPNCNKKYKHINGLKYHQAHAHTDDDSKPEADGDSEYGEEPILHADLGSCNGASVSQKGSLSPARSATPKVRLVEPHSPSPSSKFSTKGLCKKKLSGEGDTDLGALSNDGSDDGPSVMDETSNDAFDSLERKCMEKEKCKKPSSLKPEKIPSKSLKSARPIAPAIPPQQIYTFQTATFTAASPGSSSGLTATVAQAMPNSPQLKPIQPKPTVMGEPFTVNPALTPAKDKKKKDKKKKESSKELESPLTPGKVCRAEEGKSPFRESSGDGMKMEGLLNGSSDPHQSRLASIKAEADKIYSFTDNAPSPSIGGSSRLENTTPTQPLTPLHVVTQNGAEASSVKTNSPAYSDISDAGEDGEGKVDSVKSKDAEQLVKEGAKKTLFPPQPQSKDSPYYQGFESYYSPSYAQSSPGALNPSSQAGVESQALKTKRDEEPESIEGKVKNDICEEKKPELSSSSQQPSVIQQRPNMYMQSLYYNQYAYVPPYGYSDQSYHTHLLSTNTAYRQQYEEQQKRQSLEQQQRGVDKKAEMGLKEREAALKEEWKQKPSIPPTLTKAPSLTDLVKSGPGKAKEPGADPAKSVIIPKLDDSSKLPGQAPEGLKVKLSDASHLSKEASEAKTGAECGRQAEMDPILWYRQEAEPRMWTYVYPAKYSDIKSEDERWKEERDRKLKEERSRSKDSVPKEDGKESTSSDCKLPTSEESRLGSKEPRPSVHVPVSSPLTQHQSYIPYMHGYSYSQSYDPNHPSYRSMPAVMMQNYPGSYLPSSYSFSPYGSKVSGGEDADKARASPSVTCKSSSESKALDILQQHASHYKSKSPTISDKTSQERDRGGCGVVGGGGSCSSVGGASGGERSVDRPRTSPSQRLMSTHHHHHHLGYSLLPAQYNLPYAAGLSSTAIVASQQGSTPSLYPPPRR
UniProt Q5T7W0: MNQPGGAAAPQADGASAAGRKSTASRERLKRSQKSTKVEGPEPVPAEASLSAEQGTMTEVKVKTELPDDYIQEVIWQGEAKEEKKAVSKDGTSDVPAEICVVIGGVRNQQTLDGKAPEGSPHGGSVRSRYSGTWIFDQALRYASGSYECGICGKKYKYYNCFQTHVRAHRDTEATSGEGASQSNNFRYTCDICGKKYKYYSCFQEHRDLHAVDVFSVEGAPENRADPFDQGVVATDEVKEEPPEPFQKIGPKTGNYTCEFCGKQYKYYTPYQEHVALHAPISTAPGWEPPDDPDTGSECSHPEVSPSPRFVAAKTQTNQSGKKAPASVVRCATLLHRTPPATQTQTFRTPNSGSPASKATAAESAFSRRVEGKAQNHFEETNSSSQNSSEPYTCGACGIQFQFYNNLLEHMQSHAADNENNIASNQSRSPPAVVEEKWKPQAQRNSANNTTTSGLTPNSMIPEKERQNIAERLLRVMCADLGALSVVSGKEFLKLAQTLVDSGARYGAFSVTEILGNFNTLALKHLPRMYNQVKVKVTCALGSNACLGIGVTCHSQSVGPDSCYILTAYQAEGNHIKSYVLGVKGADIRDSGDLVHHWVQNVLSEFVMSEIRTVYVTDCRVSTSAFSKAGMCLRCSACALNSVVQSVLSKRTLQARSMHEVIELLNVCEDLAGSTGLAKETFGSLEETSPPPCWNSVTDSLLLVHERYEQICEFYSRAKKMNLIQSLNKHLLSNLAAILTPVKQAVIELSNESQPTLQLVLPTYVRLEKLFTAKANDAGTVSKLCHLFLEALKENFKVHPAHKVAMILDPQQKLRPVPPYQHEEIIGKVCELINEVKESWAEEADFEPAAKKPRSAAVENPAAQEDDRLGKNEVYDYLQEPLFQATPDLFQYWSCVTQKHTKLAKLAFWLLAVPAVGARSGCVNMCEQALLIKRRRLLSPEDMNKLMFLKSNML
UniProt Q969S3: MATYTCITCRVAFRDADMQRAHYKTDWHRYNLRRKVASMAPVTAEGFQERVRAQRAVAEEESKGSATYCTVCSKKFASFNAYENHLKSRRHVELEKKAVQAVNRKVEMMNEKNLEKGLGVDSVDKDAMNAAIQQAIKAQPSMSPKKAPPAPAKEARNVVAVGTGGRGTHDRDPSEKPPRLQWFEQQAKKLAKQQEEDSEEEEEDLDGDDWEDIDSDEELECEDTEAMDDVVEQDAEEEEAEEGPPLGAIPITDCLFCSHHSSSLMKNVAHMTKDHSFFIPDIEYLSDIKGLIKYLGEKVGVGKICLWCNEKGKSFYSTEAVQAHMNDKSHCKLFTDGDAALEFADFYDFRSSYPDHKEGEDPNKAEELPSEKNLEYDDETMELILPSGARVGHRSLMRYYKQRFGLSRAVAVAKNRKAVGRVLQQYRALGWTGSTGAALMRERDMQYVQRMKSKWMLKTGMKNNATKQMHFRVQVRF
UniProt Q9UEG4: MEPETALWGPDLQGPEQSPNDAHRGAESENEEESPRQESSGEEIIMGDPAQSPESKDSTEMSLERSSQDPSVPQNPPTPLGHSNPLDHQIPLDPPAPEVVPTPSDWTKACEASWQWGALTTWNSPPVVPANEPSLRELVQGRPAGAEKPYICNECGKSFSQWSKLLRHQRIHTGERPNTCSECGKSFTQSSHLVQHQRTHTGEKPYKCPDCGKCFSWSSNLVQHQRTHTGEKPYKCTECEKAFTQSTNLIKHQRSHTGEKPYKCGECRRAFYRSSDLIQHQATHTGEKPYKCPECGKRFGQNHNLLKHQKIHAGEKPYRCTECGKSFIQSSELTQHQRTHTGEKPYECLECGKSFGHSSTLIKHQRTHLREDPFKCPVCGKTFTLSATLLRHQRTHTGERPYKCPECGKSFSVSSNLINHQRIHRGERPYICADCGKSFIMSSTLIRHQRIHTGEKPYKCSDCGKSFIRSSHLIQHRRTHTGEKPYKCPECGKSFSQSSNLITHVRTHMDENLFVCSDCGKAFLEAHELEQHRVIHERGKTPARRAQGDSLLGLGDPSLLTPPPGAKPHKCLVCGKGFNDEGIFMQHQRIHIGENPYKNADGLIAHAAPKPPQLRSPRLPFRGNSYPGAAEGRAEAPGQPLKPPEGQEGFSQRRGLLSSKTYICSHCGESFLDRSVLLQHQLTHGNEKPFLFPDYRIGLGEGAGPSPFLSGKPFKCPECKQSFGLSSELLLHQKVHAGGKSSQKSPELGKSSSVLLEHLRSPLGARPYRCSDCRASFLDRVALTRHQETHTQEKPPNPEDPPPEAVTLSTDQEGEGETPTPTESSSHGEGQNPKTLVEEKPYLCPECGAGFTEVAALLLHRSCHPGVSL
UniProt Q5VV52: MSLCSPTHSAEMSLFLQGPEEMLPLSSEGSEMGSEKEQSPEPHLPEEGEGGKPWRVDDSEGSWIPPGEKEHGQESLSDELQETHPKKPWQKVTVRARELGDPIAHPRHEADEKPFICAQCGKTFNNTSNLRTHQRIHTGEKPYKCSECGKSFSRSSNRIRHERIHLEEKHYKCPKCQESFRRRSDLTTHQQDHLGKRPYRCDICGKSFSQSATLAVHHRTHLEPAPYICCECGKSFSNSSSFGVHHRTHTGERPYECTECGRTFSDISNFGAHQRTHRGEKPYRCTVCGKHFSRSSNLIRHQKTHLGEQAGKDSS
UniProt Q9Y5V0: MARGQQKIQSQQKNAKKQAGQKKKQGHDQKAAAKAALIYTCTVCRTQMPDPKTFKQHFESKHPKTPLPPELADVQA
UniProt Q9UID6: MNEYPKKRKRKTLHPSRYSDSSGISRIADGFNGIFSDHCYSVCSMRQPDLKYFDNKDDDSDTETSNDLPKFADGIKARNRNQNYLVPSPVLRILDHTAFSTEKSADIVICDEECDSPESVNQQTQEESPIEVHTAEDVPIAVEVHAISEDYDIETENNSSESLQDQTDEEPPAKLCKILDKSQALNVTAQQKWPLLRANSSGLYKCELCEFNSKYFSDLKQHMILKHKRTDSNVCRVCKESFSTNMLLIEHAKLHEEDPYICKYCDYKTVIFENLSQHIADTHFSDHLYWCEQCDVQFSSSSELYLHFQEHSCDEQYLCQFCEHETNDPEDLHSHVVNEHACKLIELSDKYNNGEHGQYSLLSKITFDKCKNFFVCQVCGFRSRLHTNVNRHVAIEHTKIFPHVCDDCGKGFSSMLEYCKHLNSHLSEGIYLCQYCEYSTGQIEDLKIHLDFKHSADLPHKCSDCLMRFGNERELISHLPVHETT
UniProt Q96BR6: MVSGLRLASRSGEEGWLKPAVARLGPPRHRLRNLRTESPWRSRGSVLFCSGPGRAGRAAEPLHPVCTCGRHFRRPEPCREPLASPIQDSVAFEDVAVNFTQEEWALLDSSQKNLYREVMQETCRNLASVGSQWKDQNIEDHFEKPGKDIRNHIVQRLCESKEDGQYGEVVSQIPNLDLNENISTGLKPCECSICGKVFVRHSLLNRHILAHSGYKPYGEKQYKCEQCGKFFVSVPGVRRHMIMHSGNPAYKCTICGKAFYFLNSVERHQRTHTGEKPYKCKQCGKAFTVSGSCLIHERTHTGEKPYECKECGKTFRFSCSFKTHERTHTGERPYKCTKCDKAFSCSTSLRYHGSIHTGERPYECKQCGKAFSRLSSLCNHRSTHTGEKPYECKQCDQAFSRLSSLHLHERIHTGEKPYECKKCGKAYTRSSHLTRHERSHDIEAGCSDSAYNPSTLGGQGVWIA
UniProt Q8NDX6: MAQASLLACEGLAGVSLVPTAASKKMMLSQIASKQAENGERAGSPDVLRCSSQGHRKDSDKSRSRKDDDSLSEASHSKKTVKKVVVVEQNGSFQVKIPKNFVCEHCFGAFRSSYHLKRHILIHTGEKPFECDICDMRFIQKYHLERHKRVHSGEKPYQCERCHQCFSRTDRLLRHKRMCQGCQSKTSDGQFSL
UniProt P0C7X2: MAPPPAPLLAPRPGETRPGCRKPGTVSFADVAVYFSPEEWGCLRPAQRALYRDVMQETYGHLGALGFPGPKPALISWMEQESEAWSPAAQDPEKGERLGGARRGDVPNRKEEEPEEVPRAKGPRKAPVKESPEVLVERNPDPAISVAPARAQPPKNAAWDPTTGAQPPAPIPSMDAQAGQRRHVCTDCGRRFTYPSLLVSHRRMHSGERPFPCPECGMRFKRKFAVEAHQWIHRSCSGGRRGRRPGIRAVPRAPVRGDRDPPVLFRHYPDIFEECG

How the values were obtained:
Assay in all cases: log2 fold change, soluble protein after heating vs DMSO (PISA); higher = thermal stabilisation; K562 cells, 10 uM, 30 min; active = over 0.2 and 3.5 SD of the protein, either way, in both replicates (recomputed)
ZNF593 = ZNF593 (UniProt O00488)
Outline: (§1)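 K562 cells at 2×10^6 cells/mL were given 10 μM compound for 30 min. Aliquots then went through 3 min of heating across 48°C-58°C, were pooled, and were extracted in PBS with 0.5% NP-40 at 4°C, and the supernatant after 21,000xg for 90 min was quantified by TMTpro 16plex LC-MS/MS with channel sums equalised. Thermal stability relative to control samples, from duplicates, is given as log2 fold change.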

ZNF598 = ZNF598 (UniProt Q86UK7)
Outline: as §1

ZNF609 = ZNF609 (UniProt O15014)
Outline: as §1

ZNF618 [1] = biological target: ZNF618 (UniProt Q5T7W0)
Outline: as §1

ZNF618 isoform 2 = ZNF618 isoform 2 (UniProt Q5T7W0)
Outline: as §1

ZNF622 = ZNF622 (UniProt Q969S3)
Outline: as §1

ZNF629 = ZNF629 (UniProt Q9UEG4)
Outline: as §1

ZNF638 = ZNF638 (UniProt Q14966)
Outline: as §1

ZNF672 = ZNF672 (UniProt Q499Z4)
Outline: as §1

ZNF691 = ZNF691 (UniProt Q5VV52)
Outline: as §1

ZNF706 = ZNF706 (UniProt Q9Y5V0)
Outline: as §1

ZNF768 = ZNF768 (UniProt Q9H5H4)
Outline: as §1

ZNF639 = ZNF639 (UniProt Q9UID6)
Outline: as §1

ZNF669 = ZNF669 (UniProt Q96BR6)
Outline: as §1

ZNF740 = ZNF740 (UniProt Q8NDX6)
Outline: as §1

ZNF618 [2] = biological target: ZNF618 (UniProt B1ALC2)
Outline: as §1

ZNF688 = ZNF688 (UniProt P0C7X2)
Outline: as §1

ZNF74 isoform 5 = ZNF74 isoform 5 (UniProt Q16587)
Outline: as §1

Measured: log2 fold change

Cn1c2cc(S(C)=O)sc2c2cnn(Cc3cccc(N)c3)c(=O)c21 (stereo unspecified)
inactive: ZNF593 = 0.225 | ZNF598 = 0.034 | ZNF609 = 0.021 | ZNF618 [1] 0.003 | ZNF618 isoform 2 = 0.139 | ZNF622 = -0.061 | ZNF629 = 0.259 | ZNF638 = 0.073 | ZNF672 = 0.106 | ZNF691 = 0.007 | ZNF706 = -0.033 | ZNF768 = 0.203

O=C1NC(=NCc2cccs2)S/C1=C\c1ccc2ncccc2c1
inactive: ZNF593 = -0.024 | ZNF598 = 0.02 | ZNF609 = -0.025 | ZNF618 [1] 0.033 | ZNF622 = 0.07 | ZNF629 = -0.074 | ZNF638 = 0.037 | ZNF639 = -0.06 | ZNF669 = 0.025 | ZNF672 = -0.137 | ZNF691 = -0.198 | ZNF706 = -0.014 | ZNF740 = -0.077 | ZNF768 = -0.085

CN1CC[C@H](c2c(O)cc(O)c3c(=O)cc(-c4ccccc4Cl)oc23)[C@H](O)C1 [alvocidib]
inactive: ZNF593 = 0.287 | ZNF598 = -0.225 | ZNF618 [2] 0 | ZNF618 [1] -0.021 | ZNF629 = 0.254 | ZNF638 = -0.053 | ZNF672 = 0.133 | ZNF691 = 0.06 | ZNF706 = 0.019 | ZNF740 = 0.3 | ZNF768 = 0.193

C/C(=N\NC(=O)c1cccc(S(=O)(=O)N2CCOCC2)c1)c1cc(Cl)ccc1O
inactive: ZNF593 = -0.079 | ZNF598 = 0.072 | ZNF609 = -0.048 | ZNF618 [1] 0.021 | ZNF622 = 0.015 | ZNF629 = -0.108 | ZNF638 = -0.113 | ZNF639 = 0.118 | ZNF669 = -0.06 | ZNF672 = 0.001 | ZNF691 = 0.073 | ZNF706 = -0.014 | ZNF740 = -0.212 | ZNF768 = -0.173

CS(=O)(=O)CCNCc1ccc(-c2ccc3ncnc(Nc4ccc(OCc5cccc(F)c5)c(Cl)c4)c3c2)o1 [lapatinib]
inactive: ZNF593 = 0.091 | ZNF598 = 0.009 | ZNF609 = 0.09 | ZNF618 [1] 0 | ZNF618 isoform 2 = 0.037 | ZNF622 = 0 | ZNF629 = 0.101 | ZNF669 = -0.074 | ZNF688 = -0.095 | ZNF691 = -0.002 | ZNF706 = -0.058 | ZNF74 isoform 5 = 0.06 | ZNF740 = -0.185 | ZNF768 = 0.128

CN1CCN(CCOc2cc(OC3CCOCC3)c3c(Nc4c(Cl)ccc5c4OCO5)ncnc3c2)CC1 [saracatinib]
inactive: ZNF593 = 0.091 | ZNF598 = -0.007 | ZNF609 = 0.047 | ZNF618 [1] 0.102 | ZNF618 isoform 2 = 0.095 | ZNF622 = -0.005 | ZNF629 = -0.107 | ZNF638 = 0.019 | ZNF672 = 0 | ZNF691 = -0.093 | ZNF706 = -0.013 | ZNF768 = -0.126

CNc1nc(-c2ccc3c(N)n[nH]c3c2)cc(N2C[C@@H](C(=O)NC3CCCCC3)CC[C@H]2C)n1
inactive: ZNF593 = 0.116 | ZNF598 = 0.072 | ZNF609 = -0.004 | ZNF618 [1] 0.003 | ZNF618 isoform 2 = 0.03 | ZNF622 = -0.019 | ZNF629 = 0.043 | ZNF638 = -0.078 | ZNF672 = 0.202 | ZNF691 = -0.019 | ZNF706 = -0.121 | ZNF768 = 0.017

Cc1cc(SCc2sc(-c3ccc(C(F)(F)F)cc3)nc2C)ccc1OCC(=O)O
inactive: ZNF593 = -0.121 | ZNF598 = 0.045 | ZNF609 = -0.134 | ZNF618 [1] 0.023 | ZNF618 isoform 2 = 0.078 | ZNF622 = -0.009 | ZNF629 = 0.008 | ZNF638 = -0.187 | ZNF672 = 0.053 | ZNF691 = 0.03 | ZNF706 = -0.038 | ZNF768 = -0.002

COc1cc2nc(-c3cc(F)ccc3O)nc(N[C@@H]3CNC[C@H]3C(C)(C)O)c2cc1OC
inactive: ZNF593 = -0.213 | ZNF598 = 0.02 | ZNF609 = 0.205 | ZNF618 [1] -0.025 | ZNF618 isoform 2 = -0.081 | ZNF622 = 0.028 | ZNF629 = -0.018 | ZNF669 = -0.237 | ZNF688 = 0.142 | ZNF691 = -0.025 | ZNF706 = 0.07 | ZNF74 isoform 5 = 0.191 | ZNF740 = -0.013 | ZNF768 = -0.073

CC[C@@H]1C(=O)N(C)c2cnc(Nc3ccc(C(=O)N[C@H]4CC[C@H](N5CCN(CC6CC6)CC5)CC4)cc3OC)nc2N1C(C)C [volasertib]
inactive: ZNF593 = 0.382 | ZNF598 = -0.123 | ZNF609 = -0.328 | ZNF618 [1] 0.018 | ZNF618 isoform 2 = -0.007 | ZNF622 = 0.138 | ZNF629 = 0.197 | ZNF669 = 0.104 | ZNF688 = 0.05 | ZNF691 = 0.077 | ZNF706 = -0.065 | ZNF74 isoform 5 = -0.303 | ZNF740 = 0.067 | ZNF768 = 0.389

A draw from above in order of heavy-atom count, high to low:
CC[C@@H]1C(=O)N(C)c2cnc(Nc3ccc(C(=O)N[C@H]4CC[C@H](N5CCN(CC6CC6)CC5)CC4)cc3OC)nc2N1C(C)C [volasertib]
inactive: ZNF593 = 0.382 | ZNF598 = -0.123 | ZNF609 = -0.328 | ZNF618 [1] 0.018 | ZNF618 isoform 2 = -0.007 | ZNF622 = 0.138 | ZNF629 = 0.197 | ZNF669 = 0.104 | ZNF688 = 0.05 | ZNF691 = 0.077 | ZNF706 = -0.065 | ZNF74 isoform 5 = -0.303 | ZNF740 = 0.067 | ZNF768 = 0.389

CNc1nc(-c2ccc3c(N)n[nH]c3c2)cc(N2C[C@@H](C(=O)NC3CCCCC3)CC[C@H]2C)n1
inactive: ZNF593 = 0.116 | ZNF598 = 0.072 | ZNF609 = -0.004 | ZNF618 [1] 0.003 | ZNF618 isoform 2 = 0.03 | ZNF622 = -0.019 | ZNF629 = 0.043 | ZNF638 = -0.078 | ZNF672 = 0.202 | ZNF691 = -0.019 | ZNF706 = -0.121 | ZNF768 = 0.017

C/C(=N\NC(=O)c1cccc(S(=O)(=O)N2CCOCC2)c1)c1cc(Cl)ccc1O
inactive: ZNF593 = -0.079 | ZNF598 = 0.072 | ZNF609 = -0.048 | ZNF618 [1] 0.021 | ZNF622 = 0.015 | ZNF629 = -0.108 | ZNF638 = -0.113 | ZNF639 = 0.118 | ZNF669 = -0.06 | ZNF672 = 0.001 | ZNF691 = 0.073 | ZNF706 = -0.014 | ZNF740 = -0.212 | ZNF768 = -0.173

More structures follow:

Cc1ccc(NC(=O)c2cccc(N(C)C)c2)cc1NC(=O)c1ccc(O)cc1
inactive: ZNF593 = 0.038 | ZNF598 = 0.019 | ZNF609 = 0.162 | ZNF618 [1] 0.002 | ZNF618 isoform 2 = -0.172 | ZNF622 = -0.036 | ZNF629 = 0.129 | ZNF638 = 0.064 | ZNF672 = 0.112 | ZNF691 = 0.018 | ZNF706 = 0.067 | ZNF740 = 0.067 | ZNF768 = 0.021

CC(=O)c1cnc2ccc(-c3cc(Cl)c(O)c(Cl)c3)nc2c1N[C@H]1CC[C@H](CN(C)C)CC1
inactive: ZNF593 = 0.004 | ZNF598 = -0.078 | ZNF609 = -0.071 | ZNF618 [1] 0.029 | ZNF622 = 0.096 | ZNF629 = 0.185 | ZNF638 = 0.038 | ZNF639 = -0.127 | ZNF669 = -0.153 | ZNF672 = 0.147 | ZNF691 = -0.148 | ZNF706 = 0.032 | ZNF740 = 0.003 | ZNF768 = 0.097
